Assay results from patent publication US8232452B2, “Methods, means and compositions for enhancing agrobacterium-mediated plant cell transformation efficiency” (priority 2005, dated 2012).
For some assays here: At least one peptide structure holds a part that was inferred or is arguable (an end, a ring closure or a residue). Some of these results come from one statement about several compounds together.

By UniProt entry, the sequences of proteins in these tests, tags left out. Residues count along the entry.
UniProt Q9FL28, 24-1173: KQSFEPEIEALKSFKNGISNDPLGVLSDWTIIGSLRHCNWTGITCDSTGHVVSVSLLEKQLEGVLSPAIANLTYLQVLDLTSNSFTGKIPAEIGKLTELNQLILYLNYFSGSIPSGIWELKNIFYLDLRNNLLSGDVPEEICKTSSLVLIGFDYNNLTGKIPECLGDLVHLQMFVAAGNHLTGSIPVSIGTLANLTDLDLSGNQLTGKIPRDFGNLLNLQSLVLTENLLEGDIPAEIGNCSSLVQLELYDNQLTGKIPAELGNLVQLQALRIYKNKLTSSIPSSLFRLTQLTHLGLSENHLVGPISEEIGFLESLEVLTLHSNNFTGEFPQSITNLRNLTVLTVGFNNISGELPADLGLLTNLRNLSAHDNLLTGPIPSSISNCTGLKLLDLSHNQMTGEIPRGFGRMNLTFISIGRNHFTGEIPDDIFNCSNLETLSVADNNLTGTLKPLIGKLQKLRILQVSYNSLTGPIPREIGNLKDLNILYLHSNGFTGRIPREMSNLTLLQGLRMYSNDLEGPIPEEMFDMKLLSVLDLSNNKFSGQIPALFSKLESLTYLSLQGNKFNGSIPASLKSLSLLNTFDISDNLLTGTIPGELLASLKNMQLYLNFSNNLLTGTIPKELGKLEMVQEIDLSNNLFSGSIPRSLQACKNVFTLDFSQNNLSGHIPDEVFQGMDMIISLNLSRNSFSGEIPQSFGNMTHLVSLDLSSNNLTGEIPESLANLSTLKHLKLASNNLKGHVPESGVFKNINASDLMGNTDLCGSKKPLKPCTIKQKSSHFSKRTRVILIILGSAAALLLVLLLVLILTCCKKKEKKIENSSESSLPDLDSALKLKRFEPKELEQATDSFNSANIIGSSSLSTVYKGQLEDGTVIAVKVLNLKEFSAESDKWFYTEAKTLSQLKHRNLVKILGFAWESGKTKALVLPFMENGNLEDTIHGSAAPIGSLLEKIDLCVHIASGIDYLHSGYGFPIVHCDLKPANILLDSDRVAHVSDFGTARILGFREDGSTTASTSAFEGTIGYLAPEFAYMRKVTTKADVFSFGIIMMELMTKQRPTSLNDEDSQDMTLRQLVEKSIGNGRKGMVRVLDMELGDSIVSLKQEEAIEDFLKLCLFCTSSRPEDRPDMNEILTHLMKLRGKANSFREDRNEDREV

Experiments:
Agrobacterium = format: in vivo; conditions: about 150 micrograms per ml Xanthan or 250 micromolar 2-DDG; pre-treatment (e.g. 24 hours prior) and/or mixed with the bacterium
Arabidopsis seedlings [1] = assay: Affymetrix ATH1 gene array with treated seedlings; format: in vivo; conditions: seedlings treated with peptide
EF-Tu receptor = target: T1, EF-Tu receptor (Arabidopsis thaliana, UniProt C0LGT6); conditions: cited from earlier work
T1 construct: Suspension cultured Arabidopsis cells have been used to establish the structure-activity relationship for various EF-Tu-derived peptides (Kunze et al., 2004); host or cells: Arabidopsis (suspension cultured cells)
T1 sequence (C0LGT6 25-1031): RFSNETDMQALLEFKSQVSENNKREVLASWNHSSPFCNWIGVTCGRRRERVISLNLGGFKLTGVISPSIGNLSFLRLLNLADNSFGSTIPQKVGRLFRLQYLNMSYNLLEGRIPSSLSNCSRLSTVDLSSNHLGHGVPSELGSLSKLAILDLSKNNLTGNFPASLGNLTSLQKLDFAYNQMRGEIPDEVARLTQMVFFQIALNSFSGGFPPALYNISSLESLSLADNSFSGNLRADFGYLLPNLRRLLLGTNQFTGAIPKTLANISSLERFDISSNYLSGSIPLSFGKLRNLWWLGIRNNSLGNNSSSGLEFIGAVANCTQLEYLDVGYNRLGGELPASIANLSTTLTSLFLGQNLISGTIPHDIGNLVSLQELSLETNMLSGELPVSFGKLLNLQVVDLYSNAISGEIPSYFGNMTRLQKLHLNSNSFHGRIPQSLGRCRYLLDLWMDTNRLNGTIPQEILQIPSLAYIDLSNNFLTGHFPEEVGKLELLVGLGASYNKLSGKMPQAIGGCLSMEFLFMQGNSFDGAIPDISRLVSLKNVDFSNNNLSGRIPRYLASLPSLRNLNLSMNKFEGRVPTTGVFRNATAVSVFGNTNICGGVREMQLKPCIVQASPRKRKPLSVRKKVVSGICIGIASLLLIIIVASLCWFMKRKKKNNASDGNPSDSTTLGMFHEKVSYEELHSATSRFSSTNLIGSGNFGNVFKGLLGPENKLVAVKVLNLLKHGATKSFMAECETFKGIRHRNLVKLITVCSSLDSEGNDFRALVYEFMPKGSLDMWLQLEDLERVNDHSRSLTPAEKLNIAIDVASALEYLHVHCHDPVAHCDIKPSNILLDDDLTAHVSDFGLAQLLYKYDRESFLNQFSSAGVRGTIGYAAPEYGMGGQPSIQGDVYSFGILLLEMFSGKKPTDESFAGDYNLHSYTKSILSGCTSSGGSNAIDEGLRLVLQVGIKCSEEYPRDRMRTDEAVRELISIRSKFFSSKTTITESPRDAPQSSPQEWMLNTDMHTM

EFR = target: T2, EFR (Arabidopsis thaliana, UniProt C0LGT6); assay: Oxidative burst and ethylene biosynthesis in N. benthamiana leaves transiently transformed with EFR
T2 sequence (C0LGT6 25-1031): T1 sequence (C0LGT6 25-1031)

Arabidopsis cells = assay: Extracellular (medium) alkalinization in cultured cells; format: cell-based; conditions: 100 nM peptide, saturating dose
[2] = target: T3, receptor sites for flagellin (Arabidopsis thaliana, UniProt Q9FL28); assay: Number of receptor sites for flagellin (^125I-flg binding) after pretreatment with elf18; conditions: cultured cells, data not shown
T3 construct: from tissue; host or cells: crude extracts of Arabidopsis Col-0 seedlings

Arabidopsis seedlings [3] = assay: Seedling growth inhibition assay; format: in vivo; conditions: 1 μM
Description: Fresh weight of seedlings was determined 7 days later. Values represent average and standard variation of n=6.
Pictures were taken after one week of treatment.
(§1) EF-Tu perception shares many features with perception of flagellin. Both PAMPs are peptides which activate their receptors in a two step process according to the concept of address-message (Bauer et al., 2001; Kunze et al., 2004). […] Thus, we speculated that perception of EF-Tu might involve a RLK gene related to FLS2 and that belongs to the group of RLKs induced after stimulation with both PAMPs. Starting with close relatives of FLS2 we established a collection of homozygous T-DNA-tagged mutants for induced LRR-RLKs from lines provided by the Salk collection (Alonso et al., 2003). These mutant lines were then tested for response to EF-Tu using the seedling growth inhibition assay that has been successfully employed previously to screen for flg22-insensitive mutants (Gómez-Gómez and Boller, 2000). […] Apart from lack of responses to EF-Tu-derived elicitors, this line was indistinguishable from wild-type plants and no other phenotype became apparent over several generations.

Arabidopsis leaf tissues = assay: Oxidative burst in leaf tissues (luminol based assay); format: cell-based; conditions: line SALK—044334 (efr-1) leaf tissue, 1 μM
Description: (B) Oxidative burst in leaf tissues of wild-type Col-0, efr-1 and fls2 plants. […] Results are averages±standard errors (n=8).
as §1

A. tumefaciens = assay: Agrobacterium-mediated transient GUS expression in Arabidopsis leaves with co-injected peptides; conditions: co-injection of 1 μM peptide with A. tumefaciens, 4 dpi

With `O=CC[C@@H](O)[C@H](O)[C@H](O)CO` [2-DDG, 2-deoxy-D-Glucose] the “increase in Agrobacterium transformation efficiency” value (Agrobacterium) was 3-4 fold.

In the case of `CC(=O)N[C@@H](CO)C(=O)N[C@@H](CCCCN)C(=O)N[C@@H](CCC(=O)O)C(=O)N[C@@H](CCCCN)C(=O)N[C@@H](Cc1ccccc1)C(=O)N[C@@H](CCC(=O)O)C(=O)N[C@@H](CCCNC(=N)N)C(=O)N[C@H](C(=O)N[C@@H](CCCCN)C(=O)N1CCC[C@H]1C(=O)N[C@@H](Cc1c[nH]cn1)C(=O)N[C@H](C(=O)O)C(C)C)[C@@H](C)O` [elf12], the “changes in gene expression” value (Arabidopsis seedlings [1]) is listed as “no significant changes in gene expression”, the “action on EF-Tu perception” value (EF-Tu receptor) is listed as “specific, competitive antagonist” and the “activity as an inducer of responses” value (EF-Tu receptor) is listed as “completely inactive”. For the same molecule, the “induction of oxidative burst and ethylene biosynthesis” value (EFR; N. benthamiana leaves expressing EFR, 100 nM (oxidative burst), 10 μM (ethylene)) was “No induction of these responses”.

With `CC[C@H](C)[C@H](NC(=O)[C@@H](NC(=O)CNC(=O)[C@@H](NC(=O)[C@H](CC(N)=O)NC(=O)[C@@H](NC(=O)[C@H](Cc1c[nH]cn1)NC(=O)[C@@H]1CCCN1C(=O)[C@H](CCCCN)NC(=O)[C@@H](NC(=O)[C@H](CCCNC(=N)N)NC(=O)[C@H](CCC(=O)O)NC(=O)[C@H](Cc1ccccc1)NC(=O)[C@H](CCCCN)NC(=O)[C@H](CCC(=O)O)NC(=O)[C@H](CCCCN)NC(=O)[C@H](CO)NC(C)=O)[C@@H](C)O)C(C)C)C(C)C)[C@@H](C)O)C(=O)NCC(=O)O` [elf18] the “lag-phase of rise of extracellular pH” value (Arabidopsis cells) was roughly 70 s, the “increase in specific receptor sites for the other PAMP (flagellin)” value [2] was greater than 2 fold and the seedling growth (Arabidopsis seedlings [3]; line SALK—044334 (efr-1)) was “completely insensitive”. For the same molecule, the seedling growth (Arabidopsis seedlings [3]; wild-type Col-0 seedlings) was “strong growth-inhibition”, the oxidative burst (Arabidopsis leaf tissues) was “did not induce an oxidative burst” and the “concentrations at which active as PAMP” value (EF-Tu receptor) was “subnanomolar”. The “transformation (GUS activity)” value (A. tumefaciens; efr-1 leaves) was “did not affect transformation”, the GUS expression (A. tumefaciens; wild type leaves) was “nearly abolished GUS expression” and the “induction of oxidative burst and ethylene biosynthesis” value (EFR; non-transformed leaves or leaves transformed with control construct AtFLS2) was “no response”.
